Results taken from patent US20140242609A1, “Diagnosis and treatment of kidney stones, methods and compositions therefor” (Washington University, priority 2013, published 2014).

Tests used:
[1] = 1 hr renal clearance measurements (FITC-inulin), plasma and urine electrolytes; type: in vivo, mouse
Procedure: (§1) The method for performing renal clearance measurements in the mouse has been described by Hou et al., (2007; 2009). Mice were anesthetized by i.p. injection of Inactin (Sigma; 100 mg/kg). The jugular vein was catheterized for i.v. infusion of 0.9% saline at 2 μL/min, with 1% FITC-inulin included in the infusate. After an equilibration period of 60 min, renal clearance measurements were carried out for a 60 min period. Urine was collected under mineral oil, and 30 μL blood sample was taken at hourly intervals. Urine and plasma Ca^2+ and Mg^2+ concentrations were measured by atomic flame absorption spectrophotometer (PerkinElmer). Urine and plasma FITC-inulin levels were measured in 100 mM HEPES buffer (pH7.0) with fluorescence spectrophotometer (BioTek). The fractional excretion of electrolytes was calculated using the following equation FEion=V×Uion/(GFR×Pion), where GFR was calculated according to the clearance rate of FITC-inulin (GFR=V×Uinulin/Pinulin).
as §1, with “Hou, J.,” for “Hou”, “2007 and Hou, J., et al., 2009.” for “(2007; 2009).”, “(Sigma:” for “(Sigma;”, “Ca^++” for “Ca^2+”, “Mg^++” for “Mg^2+”, “(PerkinEhner).” for “(PerkinElmer).”

[2] = 24 hr urinalysis in metabolic cages, plasma and urine electrolytes; type: in vivo, mouse
Procedure: Age (9-10 weeks old) and sex (male) matched wild-type and CLDN14 KO mice were housed individually in metabolic cages (Harvard Apparatus) with free access to water and food for 24 hr. Urine was collected under mineral oil. The plasma and urine Ca^++ and Mg^2+ levels were determined with atomic flame absorption spectrophotometer (PerkinElmer). The plasma (P) and urine (U) electrolyte levels were determined with the Roche Cobas clinical analyzer (Roche Diagnostics). […] The fractional excretion of electrolytes was calculated using the following equation: FEion=V×Uion/(GFR×Pion), where GFR was calculated according to the clearance rate of creatinine (GFR=V×Ucreatinine/Pcreatinine).
Mice were housed individually in metabolic cages (Harvard Apparatus) with free access to water and food for 24 hr. Urine was collected under mineral oil. The plasma and urine Ca^++ and Mg^++ levels were determined with atomic flame absorption spectrophotometer (PerkinElmer). The creatinine levels were measured with an enzymatic method that was independent of plasma chromogens.

[3] = WT + CsA (25 mg/kg BW−1 per day, 6 days), 2 hr, Veh = CsA alone
[4] = WT, 2 hr, single dose 30 mg/kg BW−1
[5] = WT, 8 hr, single dose 30 mg/kg BW−1
[6] = claudin-14 KO, 2 hr, single dose 30 mg/kg BW−1
[7] = WT pre-treated with furosemide 40 mg/kg BW−1 per day, Veh + Furo = furosemide alone

C[C@@H](NCCCc1cccc(C(F)(F)F)c1)c1cccc2ccccc12 [cinacalcet]
GFR (glomerular filtration rate) [1, 3]: 0.52 ± 0.08 mL/h/g
UV (urine volume) [1, 3]: 14.98 ± 3.97 µL/h/g
Weight [1, 3]: 20.56 ± 0.18 g
GFR (glomerular filtration rate) [1, 4]: 0.44 ± 0.06 mL/h/g
UV (urine volume) [1, 4]: 6.65 ± 1.14 µL/h/g
Weight [1, 4]: 22.88 ± 1.39 g
GFR (glomerular filtration rate) [1, 5]: 0.28 ± 0.03 mL/h/g
UV (urine volume) [1, 5]: 7.74 ± 2.13 µL/h/g
Weight [1, 5]: 22.72 ± 0.20 g
GFR (glomerular filtration rate) [1, 6]: 0.36 ± 0.06 mL/h/g
UV (urine volume) [1, 6]: 4.38 ± 0.68 µL/h/g
Weight [1, 6]: 21.80 ± 0.97 g

NS(=O)(=O)c1cc(C(=O)O)c(NCc2ccco2)cc1Cl [Furo, Furosemide]
GFR [2, 7]: 1.77 ± 0.44 ml/24 h · g
UV [2, 7]: 137.11 ± 15.95 ul/24 h · g

O=C(CCCCCCC(=O)Nc1ccccc1)NO [SAHA, Suberanilohydroxamic acid]
GFR ([2]; CLDN14 KO, same SAHA regimen): 2.42 ± 0.29 ml/24 h · g
UV ([2]; CLDN14 KO, same SAHA regimen): 44.03 ± 2.07 ul/24 h · g
GFR [2, 7]: 1.69 ± 0.13 ml/24 h · g
UV [2, 7]: 110.59 ± 9.03 ul/24 h · g
GFR ([2]; WT, SAHA 10 mg/kg BW−1 per day): 2.09 ± 0.51 ^ ml/24 h · g
UV ([2]; WT, SAHA 10 mg/kg BW−1 per day): 37.11 ± 4.54 ^ ul/24 h · g

CC(C)(Cc1ccc2ccccc2c1)NC[C@@H](O)COc1cccc(Cl)c1C#N [NPS2143]
GFR (glomerular filtration rate) [1, 3]: 0.41 ± 0.06 mL/h/g
UV (urine volume) [1, 3]: 9.03 ± 3.47 µL/h/g
Weight [1, 3]: 20.77 ± 0.58 g
GFR (glomerular filtration rate) [1, 4]: 0.51 ± 0.06 mL/h/g
UV (urine volume) [1, 4]: 7.91 ± 1.34 µL/h/g
Weight [1, 4]: 22.10 ± 0.38 g
GFR (glomerular filtration rate) [1, 5]: 0.44 ± 0.08 mL/h/g
UV (urine volume) [1, 5]: 7.14 ± 1.25 µL/h/g
Weight [1, 5]: 21.73 ± 0.27 g
GFR (glomerular filtration rate) [1, 6]: 0.34 ± 0.02 mL/h/g
UV (urine volume) [1, 6]: 3.63 ± 0.06 µL/h/g
Weight [1, 6]: 23.86 ± 0.86 g
